The results in this text go back to paper doi:10.1101/2021.04.12.439405 (bioRxiv, 2021).

Positions count from the first letter of the chain named. These are yes or no findings as the source states them, for the method shown. Some entries that bind do so weakly or less than the wild type. For some assays here: Where a sequence is shown, tags or fusion partners need not be part of it.

The target of assay [1] is T1, MukB^V1124E (E. coli) (UniProt P22523).
T1 sequence: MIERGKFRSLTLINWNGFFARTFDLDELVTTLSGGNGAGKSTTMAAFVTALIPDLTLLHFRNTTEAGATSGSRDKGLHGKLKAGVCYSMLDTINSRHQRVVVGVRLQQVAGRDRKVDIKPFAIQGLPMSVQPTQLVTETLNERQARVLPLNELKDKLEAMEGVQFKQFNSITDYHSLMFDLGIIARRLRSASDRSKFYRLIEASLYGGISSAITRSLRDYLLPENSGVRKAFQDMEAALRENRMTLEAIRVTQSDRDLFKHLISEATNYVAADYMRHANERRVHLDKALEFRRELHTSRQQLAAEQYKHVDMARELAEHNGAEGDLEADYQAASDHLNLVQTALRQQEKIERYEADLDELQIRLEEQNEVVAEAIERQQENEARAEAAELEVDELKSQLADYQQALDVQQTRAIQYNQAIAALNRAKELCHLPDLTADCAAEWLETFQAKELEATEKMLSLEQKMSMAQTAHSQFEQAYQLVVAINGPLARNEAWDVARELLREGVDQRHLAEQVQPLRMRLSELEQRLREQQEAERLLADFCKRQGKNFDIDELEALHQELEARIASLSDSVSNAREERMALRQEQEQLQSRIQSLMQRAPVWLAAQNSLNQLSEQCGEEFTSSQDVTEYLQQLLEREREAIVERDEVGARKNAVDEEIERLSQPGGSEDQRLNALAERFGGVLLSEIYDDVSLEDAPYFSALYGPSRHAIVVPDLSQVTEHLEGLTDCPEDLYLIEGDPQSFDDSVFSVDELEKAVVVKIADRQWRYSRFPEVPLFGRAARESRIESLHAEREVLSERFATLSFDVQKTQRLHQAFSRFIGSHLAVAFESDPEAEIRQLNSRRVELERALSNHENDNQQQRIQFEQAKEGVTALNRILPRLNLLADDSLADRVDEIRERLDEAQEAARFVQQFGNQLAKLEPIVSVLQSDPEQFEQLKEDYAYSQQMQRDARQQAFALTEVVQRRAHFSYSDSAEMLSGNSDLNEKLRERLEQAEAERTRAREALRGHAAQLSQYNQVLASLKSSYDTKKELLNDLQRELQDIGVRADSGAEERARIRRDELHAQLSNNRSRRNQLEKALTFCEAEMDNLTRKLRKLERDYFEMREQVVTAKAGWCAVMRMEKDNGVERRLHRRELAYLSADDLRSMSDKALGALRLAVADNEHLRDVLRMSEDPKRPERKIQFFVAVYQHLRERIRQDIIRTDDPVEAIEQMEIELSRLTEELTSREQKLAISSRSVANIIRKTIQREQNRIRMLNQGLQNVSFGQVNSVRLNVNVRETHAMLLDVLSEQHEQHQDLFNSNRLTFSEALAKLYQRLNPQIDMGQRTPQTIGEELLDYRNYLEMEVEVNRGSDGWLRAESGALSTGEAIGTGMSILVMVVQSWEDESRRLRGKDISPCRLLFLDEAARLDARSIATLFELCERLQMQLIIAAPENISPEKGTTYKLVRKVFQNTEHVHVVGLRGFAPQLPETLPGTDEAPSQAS
Put plainly: co-purification.

The target in assay [2] is T2, MukB-His (wild type MukB) (E. coli, UniProt P22523 1-1486).
T2 sequence (looked up): T1 sequence with E1124V
Kind of assay: co-purification.

For “Acyl Carrier Protein (AcpP), co-purified with MukB proteins (from UniProt P0A6A8 1-78)”, the binding entry in assay [1] and in assay [2] was “binds” throughout.
